What was measured:
Assay type in all cases: cell-based
[1] = target: T1, RSV F protein (Human respiratory syncytial virus A, UniProt P03420); experiment: recombinant F CEI fusion assay, 384-well
T1 construct: expressed in transfected cells; host or cells: Cos7 cells (transiently transfected), co-plated with BsrT7 cells
Excerpt: Impedance assays were setup in parallel to microscopy based fluorescent protein cytoplasmic mixing and cell content mixing T7 driven fusion assays. For testing small molecule inhibitors see cell content mixing, T7 driven reporter fusion assay protocol for cell infection, transfection and plating method. All other steps were as listed below.
Cos7-G cells were transfected with the RSV F expression vector (pCICO-Fopt) in 6 well plates using lipofectamine LTX as per manufacturer’s instructions (Invitrogen) or infected with RSV (MOI of 2). Four hours post infection/transfection, cells were trypsinized and re-suspended to 8 × 10^5 cells/ml. E-Plates were pre-blanked and Cos7-G and Cos7-R cells were seeded together at a 1:1 ratio for a final cell density of 5 × 10^4 cells/well. Plates were placed into the SP station, incubated at 37 °C in 5% CO2 and impedance was recorded every 15 min over 72 h.
(§1) 384-well fusion assays were setup as per 96-well protocol with the following changes: Cos7 and BsrT7 cells were seeded at a final concentration of 1 × 10^4 cells/well. Compound titration was performed in a Biomek NX Laboratory Automation Workstation and added to a final volume of 25 μl/well. Luciferase activity was determined using an EnVision Multilabel reader (PerkinElmer).

Sequences of proteins named here, by UniProt entry; tags and fusion partners are left off. Residues count along the entry.
UniProt P03420, 137-574: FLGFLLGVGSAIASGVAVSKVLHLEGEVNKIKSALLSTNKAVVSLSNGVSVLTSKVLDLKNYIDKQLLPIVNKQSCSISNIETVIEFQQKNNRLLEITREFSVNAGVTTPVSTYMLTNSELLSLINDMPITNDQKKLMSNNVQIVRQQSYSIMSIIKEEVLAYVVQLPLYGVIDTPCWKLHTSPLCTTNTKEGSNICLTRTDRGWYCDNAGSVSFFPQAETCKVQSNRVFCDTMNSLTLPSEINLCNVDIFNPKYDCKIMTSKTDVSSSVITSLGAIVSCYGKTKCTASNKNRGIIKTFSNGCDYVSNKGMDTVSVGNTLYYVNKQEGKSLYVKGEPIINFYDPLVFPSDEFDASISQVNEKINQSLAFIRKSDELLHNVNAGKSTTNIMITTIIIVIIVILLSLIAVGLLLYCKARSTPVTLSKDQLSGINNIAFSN
UniProt P03420, 26-109: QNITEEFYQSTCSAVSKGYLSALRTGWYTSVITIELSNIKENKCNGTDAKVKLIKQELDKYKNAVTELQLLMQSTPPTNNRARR

[2] = target: T1, RSV F protein; experiment: Cell content mixing T7 luciferase fusion assay, recombinant F, 384-well
Procedure: (§2) The protocol is an adaptation of that described by Bagai and Lamb[29]. Cos7 cells were transfected with a plasmid containing Renilla luciferase under T7 promoter control (pGL80-T7RL) and an RSV F expression vector. For live virus fusion assay, transfection media was removed after 2 h and replaced with SF media containing RSV (MOI of 2). Two h post infection (4 h post initial transfection) cells were trypsinized and re-suspended to 8 × 10^5 cells/ml. Compounds were serially diluted in SF Opti-MEM media and added to opaque bottom, white microtitre plates (Corning) at 50 μl/well along with 25 μl of both Cos7 and BsrT7 cells added to each well to obtain a final concentration of 5 × 10^4 cells/well. After 24 h, media was exchanged with 50 μl/well Opti-MEM media supplemented with 2% FBS and 8 ng/ml Enduren Live Cell Substrate (Promega). After 6 h at 37 °C in a humidified incubator supplemented with 5% CO2, the plates were read using a Lucy 2 luminometer with 1 sec integration time. Assays were performed in triplicate.
as §1

[3] = target: T1, RSV F protein; experiment: Cell content mixing T7 luciferase fusion assay, recombinant F, 96-well
Procedure: as §2

Cc1ccc(CCCO)c(NCc2ccc3nc(NCCCN4CCOCC4)n(Cc4nc(C)ccc4O)c3c2)c1 [TMC-353121]
IC50 [1]: 126 nM
IC50 [2]: 63.1 nM
IC50 [3]: 0.501 nM
